The values that follow are results of earlier work, collected in patent US8192719B2, “Methods and kits to diagnose growth hormone deficiency by oral administration of EP 1572 or EP 1573 compounds” (Aeterna Zentaris GmbH, priority 2006, dated 2012).

For the data set the following is noted: route as printed with the test, cited from earlier work; for Specificity: proportion of subjects correctly assessed as not having GHD; for Sensitivity: proportion of subjects correctly diagnosed with GHD.

For the compound `N=C(N)NCCC[C@H](N)C(=O)O` [ARG (i.v.), arginine], the Specificity is recorded as 91% and the Sensitivity was 87%.

Turning to `N[C@@H](Cc1ccc(O)c(O)c1)C(=O)O` [L-Dopa (p.o.), levodopa], the Specificity was 62% and the Sensitivity is on record as 100%.
